Binding data for one molecule are collected here from patent US20080241125A1 (Dana-Farber, published 2008).

Protein sequences, listed by entry. Tags and fused reporters are not part of them. Lines headed by an entry give the natural chain unless they say otherwise; changes in a name come on top.
UniProt Q9Y6K9: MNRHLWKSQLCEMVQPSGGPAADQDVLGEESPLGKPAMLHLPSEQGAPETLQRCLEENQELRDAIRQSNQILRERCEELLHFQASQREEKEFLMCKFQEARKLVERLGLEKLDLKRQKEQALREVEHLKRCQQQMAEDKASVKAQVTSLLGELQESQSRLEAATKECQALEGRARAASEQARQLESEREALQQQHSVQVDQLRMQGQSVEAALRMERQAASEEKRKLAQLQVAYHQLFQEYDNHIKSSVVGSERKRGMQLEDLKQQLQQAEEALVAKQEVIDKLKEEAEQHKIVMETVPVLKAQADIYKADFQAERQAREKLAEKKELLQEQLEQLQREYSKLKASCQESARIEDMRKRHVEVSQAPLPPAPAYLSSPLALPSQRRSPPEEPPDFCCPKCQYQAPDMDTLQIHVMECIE

In assay [1] the target is T1, purified IKKγ (human, UniProt Q9Y6K9 1-419, limits assumed).
T1 construct: also called NEMO
The assay can be described thus: GST pull-down (restated in Example 5).

Assay [2] addresses T1, purified IKKγ. The assay can be described thus: GST pull-down: GST-MUC1-CD fragments on glutathione beads with purified IKKγ, anti-IKKγ immunoblot (FIG. 5C).

Results are given in words; binding and its absence hold for the method and conditions named. Some results given as binding are weak or reduced against the parent protein; the word gives no strength. Tags and fused reporters may be left off the sequences shown.

Regarding YEKVSAGNGGSSLSYTNPAVAATSANL (peptide, not shown: a dimerising Fc or GST) [GST-MUC1-CD(46-72)], the binding result in assay [1] and in assay [2] was “binds” in each case.
